Results are given in words; binding and its absence hold for the method and conditions named. Some binding calls cover weakened binding; strength is not graded here. Sequences can lack the tags named with a protein.

Assay [1] deals with T1, papain (cysteine protease) (UniProt P00784).
T1 sequence (looked up): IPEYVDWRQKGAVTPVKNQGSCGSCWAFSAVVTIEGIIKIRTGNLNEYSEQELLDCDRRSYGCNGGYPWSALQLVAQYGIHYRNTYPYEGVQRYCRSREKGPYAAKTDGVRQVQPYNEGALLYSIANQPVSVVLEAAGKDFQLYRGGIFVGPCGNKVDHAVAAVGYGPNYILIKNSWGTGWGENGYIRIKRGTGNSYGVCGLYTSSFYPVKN
Description: phage ELISA, papain coated in well.

For assay [2], the target named is T1, papain (cysteine protease). Description: phage ELISA.

B1: phage displaying the OV7 protease inhibitor (OV7 from Onchocerca volvulus expressed on the surface of filamentous phage as a fusion to the gene 3 phage coat … (protein)
chain: AKNPSKMESKTGENQDRPVLLGGWEDRDPKDEEILELLPSILMKVNEQSNDEYHLMPIKLLKVSSQVVAGVKYKMDVQVARSQCKKSSNEKVDLTKCKKLEGHPEKVMTLEVWEKPWENFMRVEILGTKEV
Regarding B1, the binding result in assay [1] and in assay [2] was “binds” each time.

For the origin of these results see patent US20030182691A1.
